In PMC4075472 one finds binding data, which are given here for 4 molecules.

Results are given in words; binding and its absence hold for the method and conditions named. Binding seen in cells or lysates may run through a third protein. These calls come from enrichment with a bait or labelling near it, and not all partners need be listed. Where a sequence is shown, tags or fusion partners need not be part of it.

In assay [1] the target is T1, CASK-β, full-length wild type, tagged with a C-terminal YFP (Drosophila) (UniProt Q24210).
T1 sequence: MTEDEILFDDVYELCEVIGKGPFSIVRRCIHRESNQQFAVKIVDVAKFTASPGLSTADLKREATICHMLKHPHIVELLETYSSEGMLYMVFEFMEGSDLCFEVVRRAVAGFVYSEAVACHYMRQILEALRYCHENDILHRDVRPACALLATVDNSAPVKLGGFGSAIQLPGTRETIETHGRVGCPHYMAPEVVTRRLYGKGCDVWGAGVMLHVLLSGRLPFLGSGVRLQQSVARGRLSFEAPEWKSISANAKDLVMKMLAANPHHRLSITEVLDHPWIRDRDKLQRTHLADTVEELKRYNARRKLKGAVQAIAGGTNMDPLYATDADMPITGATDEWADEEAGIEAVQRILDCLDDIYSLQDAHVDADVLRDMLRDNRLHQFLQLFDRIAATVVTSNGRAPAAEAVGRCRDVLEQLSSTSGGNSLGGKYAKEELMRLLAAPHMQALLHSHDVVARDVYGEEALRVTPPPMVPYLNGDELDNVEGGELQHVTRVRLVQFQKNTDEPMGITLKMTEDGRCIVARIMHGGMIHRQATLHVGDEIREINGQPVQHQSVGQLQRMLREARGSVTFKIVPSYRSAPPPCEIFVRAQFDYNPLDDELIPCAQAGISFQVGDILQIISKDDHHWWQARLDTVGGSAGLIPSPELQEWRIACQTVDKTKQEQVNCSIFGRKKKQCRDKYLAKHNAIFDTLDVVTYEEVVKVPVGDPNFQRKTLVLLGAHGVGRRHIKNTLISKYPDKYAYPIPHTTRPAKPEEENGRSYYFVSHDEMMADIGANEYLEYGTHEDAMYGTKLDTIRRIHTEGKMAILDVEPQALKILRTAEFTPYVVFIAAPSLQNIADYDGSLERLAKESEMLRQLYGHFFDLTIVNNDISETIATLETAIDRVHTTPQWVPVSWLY
Description: affinity purification with mass spectrometry; as a1, but CASK-YFP expressed with C164-GAL4 (a subset of adult neurons).

Assay [2] addresses T1, CASK-β, full-length wild type, tagged with a C-terminal YFP (Drosophila). Description: affinity purification with mass spectrometry; CASK-YFP precipitated with GFP-TRAP beads from adult head lysate as in a1; the GAL4 driver of this hit is not told.
Assay [3] shares this target. Briefly: affinity purification with mass spectrometry; CASK-YFP expressed with C155-GAL4 (all neurons) on a CASK-β null background; about 100 adult heads, solubilised with deoxycholic acid and Triton X-100, GFP-TRAP beads overnight at 4°C, washed in 20 mM Tris pH 7.2, 100 mM NaCl, 1% deoxycholic acid, 1% Triton X-100; SDS-PAGE, LC-MS/MS; hits: >4 unique peptides and at least 4-fold over the control GFP precipitation.

For assay [4] the target is unchanged. Description: affinity purification with mass spectrometry; as a1, but CASK-YFP (full length, ΔL27 or ΔCaMK) expressed with TH-GAL4 (dopaminergic neurons); decreased: peptide ratio mutant/full length <= 0.5.

B1: CHP (protein, UniProt P12024 30-1315)
chain: SMFDREMEETHYPPCTYNVMCTCSKSSTDLGIVHCKNVPFPALPRMVNQSKVFMLHMENTGLREIEPYFLQSTGMYRLKISGNHLTEIPDDAFTGLERSLWELILPQNDLVEIPSKSLRHLQKLRHLDLGYNHITHIQHDSFRGLEDSLQTLILRENCISQLMSHSFSGLLILETLDLSGNNLFEIDPNVFVDGMPRLTRLLLTDNILSEIPYDALGPLKSLRTLDISHNVIWSLSGNETYEIKASTKLNLDNLHLEYNHIEVLPPNSFKYFDTVNRTFFDGNPIHTLREDAFKPARIREIYMRYCGLTNISPVAFDSLVNSLQILDLSGNNLTKLHHKLFNNFDVLRVISMRDNKIKIQKPTETFNAVHYTLLKLDLSGDRNDPTNLQTLRNMTRMRNMRSLSISRLGSSSVGPEDFKDFGVELEDLQITRASLSGIQSHAFKHVRGLKRLDFSENGISSIENDAFHEIGHSLISLKMSHGYSGSALPAEPLRHLTSLQELDFSNNHISSMSDTSFHFLKNLRLLELHDNRIEQVLKGTFQGDIHSKLEEISLRFNHLTSISQHTFFDLEALRKLHLDDNKIDKIERRAFMNLDELEYLSLRGNKINNLADESFQNLPKLEILDMAFNQLPNFNFDYFDQVGTLSNLNVNVSHNQIRQLMYNSSWSGRNEHGGMYHSNIKILDLSHNNISIIHPGYFRPAEISLTHLHLGYNSLMNTTRDVFGNMPHLQWLDLSYNWIHELDFDAFKNTKQLQLVFFGHNYLSDIPQDIFKPVQGLRIVDFSHNHLRGLPDNLFYNGGMEKLDVSHNMMLKIPSSSLSSLAALTLCELHLSNNFISTIHSMDLSNKFRSLRYLDISYNYLLRIDDAVFATMPKLAVLDLSHNRDLKVMDKSFMGLENSLIKLGLENISLSTVPEIRLKYLREFRLGYNELPSIPQELAHNMSNLRMLDLSNNDLTNVPLMTQALPHLRRLMLSGNPITSLNNNSFDGVNEDLEMLDISNFRLHYFEYGCLDSLPHLRSLKLTAYSHLEHFNIPHLLRHHYNIRQLWIEAPQPFTRIVKKGSGPTQEMQTLQLGNPTDLQREMEGHLPSKLTNITFSGPQFTNLNERILRGMRSPYLYMQLFNTSLQALPPNFFKYMGRVRNISLDIRYHNRNLKKIPNPNTGAVPYLPNSVFLTDLKMSHTDLNCDCDLGWVEFWQRKRRQYICSSQTWTDTVFRTFMNSPCQVYGRHNCDEHDDDLRETRCENKGGQQLMEALKFDLECGWDNANCREAAFVVVMVCVAMVFWM
As for B1, the binding entry in assay [1] is “binds”.

B2: DJ-1 (dj-1β) (protein, UniProt Q9VA37 1-187)
chain: MSKSALVILAPGAEEMEFIIAADVLRRAGIKVTVAGLNGGEAVKCSRDVQILPDTSLAQVASDKFDVVVLPGGLGGSNAMGESSLVGDLLRSQESGGGLIAAICAAPTVLAKHGVASGKSLTSYPSMKPQLVNNYSYVDDKTVVKDGNLITSRGPGTAYEFALKIAEELAGKEKVQEVAKGLLVAYN
Consider B2, for which the binding result in assay [2] was “binds”.

B3: PRM (protein, UniProt P35415 1-879)
chain: MSSSQAVRSSKYSYRATSTGPGTADVNIEYIQDLSSLSRLEDKIRLLQDDLEVERELRQRIEREKADLSVQVIQMSERLEEAEGGAEHQFEANRKRDAELLKLRKLLEDVHLESEETTLLLKKKHNEIITDFQEQVEILTKNKARAEKDKAKFQTEVYELLSQIESYNKEKIVSEKHISKLEVSISELNVKIEELNRTVIDISSHRSRLSQENIELTKDVQDLKVQLDTVSFSKSQVISQLEDARRRLEDEDRRRSLLESSLHQVEIELDSVRNQLEEESEARIDLERQLVKANADATSWQNKWNSEVAARAEEVEEIRRKYQVRITELEEHIESLIVKVNNLEKMKTRLASEVEVLIIDLEKSNNSCRELTKSVNTLEKHNVELKSRLDETIILYETSQRDLKNKHADLVRTVHELDKVKDNNNQLTRENKKLGDDLHEAKGAINELNRRLHELELELRRLENERDELTAAYKEAEAGRKAEEQRGQRLAADFNQYRHDAERRLAEKDEEIEAIRKQTSIEIEQLNARVIEAETRLKTEVTRIKKKLQIQITELEMSLDVANKTNIDLQKVIKKQSLQLTELQAHYEDVQRQLQATLDQYAVAQRRLAGLNGELEEVRSHLDSANRAKRTVELQYEEAASRINELTTANVSLVSIKSKLEQELSVVASDYEEVSKELRISDERYQKVQVELKHVVEQVHEEQERIVKLETIKKSLEVEVKNLSIRLEEVELNAVAGSKRIISKLEARIRDLELELEEEKRRHAETIKILRKKERTVKEVLVQCEEDQKNLILLQDALDKSTAKINIYRRQLSEQEGVSQQTTTRVRRFQRELEAAEDRADTAESSLNIIRAKHRTFVTTSTVPGSQVYIQETTRTITE
Turning to B3, the binding result in assay [1] is “binds”.

B4: TPI (enzyme, UniProt P29613 1-247)
chain: MSRKFCVGGNWKMNGDQKSIAEIAKTLSSAALDPNTEVVIGCPAIYLMYARNLLPCELGLAGQNAYKVAKGAFTGEISPAMLKDIGADWVILGHSERRAIFGESDALIAEKAEHALAEGLKVIACIGETLEEREAGKTNEVVARQMCAYAQKIKDWKNVVVAYEPVWAIGTGQTATPDQAQEVHAFLRQWLSDNISKEVSASLRIQYGGSVTAANAKELAKKPDIDGFLVGGASLKPEFVDIINARQ
Turning to B4, the binding entry in assay [3] and in assay [4] was “binds” each time.
